For one substance, binding results are on record in publication PMC4868690.

The chains behind the UniProt entries cited, without tags or fusion partners. Where a name states a change or a piece, a line headed by the entry shows the natural chain unless it says otherwise.
UniProt P05556: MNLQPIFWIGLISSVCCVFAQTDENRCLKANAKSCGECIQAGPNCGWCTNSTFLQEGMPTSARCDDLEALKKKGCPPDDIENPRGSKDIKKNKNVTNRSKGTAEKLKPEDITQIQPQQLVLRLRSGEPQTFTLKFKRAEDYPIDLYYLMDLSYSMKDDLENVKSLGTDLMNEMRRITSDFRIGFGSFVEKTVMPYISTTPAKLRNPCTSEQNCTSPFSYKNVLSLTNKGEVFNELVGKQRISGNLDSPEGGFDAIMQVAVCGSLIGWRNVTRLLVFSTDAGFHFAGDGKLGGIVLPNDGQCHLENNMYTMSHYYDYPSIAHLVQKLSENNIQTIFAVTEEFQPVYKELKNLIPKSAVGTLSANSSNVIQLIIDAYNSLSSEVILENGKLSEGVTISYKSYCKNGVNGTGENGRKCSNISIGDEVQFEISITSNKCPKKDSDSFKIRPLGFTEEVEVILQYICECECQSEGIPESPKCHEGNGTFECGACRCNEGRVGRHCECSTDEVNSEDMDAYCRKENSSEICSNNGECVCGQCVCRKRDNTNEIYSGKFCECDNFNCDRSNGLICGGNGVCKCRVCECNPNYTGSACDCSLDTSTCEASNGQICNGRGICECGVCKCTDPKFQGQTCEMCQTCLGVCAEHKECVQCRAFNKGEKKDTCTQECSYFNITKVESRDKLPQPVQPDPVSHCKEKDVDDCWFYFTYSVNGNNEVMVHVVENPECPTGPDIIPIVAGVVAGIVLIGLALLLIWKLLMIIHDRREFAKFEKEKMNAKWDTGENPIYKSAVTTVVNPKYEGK

Numbering of substitutions follows the chain as printed. No constants are given. Whether binding was seen depends on the method and setting. Binding seen in cells or lysates may run through a third protein. Some entries that bind do so weakly or less than the wild type. Sequences can lack the tags named with a protein.

For one test, the target named is T1, EGFP-Rab23 WT (human) (UniProt Q9ULC3).
T1 sequence: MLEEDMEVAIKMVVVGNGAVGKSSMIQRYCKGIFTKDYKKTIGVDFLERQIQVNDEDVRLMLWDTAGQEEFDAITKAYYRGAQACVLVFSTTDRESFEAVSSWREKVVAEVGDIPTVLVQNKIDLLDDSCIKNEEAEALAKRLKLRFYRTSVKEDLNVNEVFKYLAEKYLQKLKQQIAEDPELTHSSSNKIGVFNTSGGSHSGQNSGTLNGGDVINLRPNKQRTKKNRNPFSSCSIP
Description: co-IP; Sa3 cells stably expressing EGFP-Rab23 forms lysed in IP and westernblot lysis buffer; anti-EGFP antibody 6 h, A/G plus beads overnight, five washes; immunoblot for endogenous partners. For orientation: Immunoblotting shows a protein as a band on a membrane.

For the next test, the target named is T2, EGFP-Rab23 Q68L (human) (UniProt Q9ULC3).
T2 sequence: T1 sequence with Q68L
The test is described as above.

As to “integrin β1 (from UniProt P05556 21-798) (receptor)”, the binding result with EGFP-Rab23 WT (human) and with EGFP-Rab23 Q68L (human) was “binds” in each case.
